This assay has as its target recombinant HS-TNFα (UniProt P01375). The assay can be described thus: pull-down.

The chains behind the UniProt entries cited, without tags or fusion partners. Where a name states a change or a piece, a line headed by the entry shows the natural chain unless it says otherwise.
UniProt P01375: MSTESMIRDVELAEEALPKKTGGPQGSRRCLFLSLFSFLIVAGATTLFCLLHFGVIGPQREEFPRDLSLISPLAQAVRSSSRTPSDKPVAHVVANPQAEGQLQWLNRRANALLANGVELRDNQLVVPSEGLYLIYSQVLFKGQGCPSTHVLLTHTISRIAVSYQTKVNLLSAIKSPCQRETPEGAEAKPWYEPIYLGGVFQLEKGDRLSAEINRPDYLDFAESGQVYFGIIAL

Results are given in words; binding and its absence hold for the method and conditions named. Binding seen in cells or lysates may run through a third protein. Binding can be weak; no strength is given.

B1: endogenous mouse N4BP1 (NEDD4-binding protein 1) (protein, UniProt Q6A037 1-893)
chain: MAARVVLDEFTAPAEKAALLERSRGRIEALFGVGLAVLGALGAEEPLPARIWLQLRGAQEAVHSAKEYIKGICEPELEEKECYPKAMHCIFVGAQSLFLKSLIQDTCADLCVLDTGLLGIRGSAEAVVMARSHIQQFVKLFESNENLPSNQRESEIKREFRQFVEAHADSYTMDLLILPTSLKKELLSLTQGEESLFETDDDVITVGDVRPPEYTQSAATGPSSARDEVVVQEDSRNKARTPVSELTKHMDTVFSSSPDVLFVPVNGLSPDEDALSKDRVCHKRRSSDTEERHTKKQFSLENVPEGELLPDGKGSAGNEVIDLSDPASNSTNLSPDGKDTTEEMEYNILVNFFKTMGYSQEIVEKVIREYGPSTEPLLLLEEIEKENKRLQEDRDFPPCTVYPDASQSRNAGVGSTTNELTADSTPKKAQSHTEQSMVERFSQLPFKDSKHCTSNCKVNSFRTVPVGQKQEIWGSKQNSSCTVDLETDGHSASAASASPKDISFVSRGASGHQQRNPAFPENGFQQQTEPLLPNNTKPACEKRSGSCSSPQPKPNYPPLSPPLPLPQLLPSVTEARLGGSSDHIDSSVTGVQRFRDTLKIPYKLELKNEPGRADLKHIVIDGSNVAITHGLKKFFSCRGIAIAVEYFWKLGNRNITVFVPQWRTRRDPNITEQHFLTQLQELGILSLTPARMVFGERIASHDDRFLLHLADKTGGIIVTNDNFREFVTESVSWREIITKRLLQYTFVGDIFMVPDDPLGRNGPRLEEFLRKEAFLRHMQPLLNALPSVGTFDPGFRSPSTQVANNSHQPPPRIQTSSSPWLPQQSHFTALATLPSMQQNPPLPAQRSSAETSELREALLKIFPDSEQKLKIDQILAAHPYMKDLNALSALVLD
For the molecule B1, the binding result is on record as “binds”.

For the origin of these results see article doi:10.1101/2021.11.02.466974.
